Results taken from publication PMC6134199.

Protein sequences, listed by entry. Tags and fused reporters are not part of them. Lines headed by an entry give the natural chain unless they say otherwise; changes in a name come on top.
UniProt P76114, whole entry: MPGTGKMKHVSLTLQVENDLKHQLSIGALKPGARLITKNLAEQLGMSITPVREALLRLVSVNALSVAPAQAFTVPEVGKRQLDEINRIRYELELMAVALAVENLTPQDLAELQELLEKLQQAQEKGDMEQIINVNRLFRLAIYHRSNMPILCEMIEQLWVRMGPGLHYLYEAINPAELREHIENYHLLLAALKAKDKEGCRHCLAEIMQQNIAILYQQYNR
UniProt P0A8W0: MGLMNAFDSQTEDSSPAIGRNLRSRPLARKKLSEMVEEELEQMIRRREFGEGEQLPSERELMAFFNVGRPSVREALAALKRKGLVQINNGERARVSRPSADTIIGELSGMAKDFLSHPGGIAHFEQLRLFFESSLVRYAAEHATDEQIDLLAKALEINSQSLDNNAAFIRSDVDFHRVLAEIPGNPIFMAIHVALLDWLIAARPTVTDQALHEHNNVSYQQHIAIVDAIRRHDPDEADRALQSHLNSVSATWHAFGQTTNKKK
UniProt P67660: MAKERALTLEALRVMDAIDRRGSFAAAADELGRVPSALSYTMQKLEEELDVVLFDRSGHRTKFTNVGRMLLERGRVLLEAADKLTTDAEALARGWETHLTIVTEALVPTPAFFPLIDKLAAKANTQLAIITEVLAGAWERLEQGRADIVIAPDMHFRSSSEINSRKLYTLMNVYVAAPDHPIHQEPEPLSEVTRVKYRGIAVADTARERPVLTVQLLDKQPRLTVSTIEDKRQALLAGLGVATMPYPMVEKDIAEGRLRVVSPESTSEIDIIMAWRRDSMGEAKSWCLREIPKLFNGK

Columns and labels:
Experiment in all cases: EMSA
[1] = biological target: T1, ArcA (Escherichia coli K-12 W3110 type A) (UniProt P0A9Q1); settings: 0.5 pmol each FITC probe + 20 pmol TF (Fig 4: 0-8 pmol) in 10 ul DNA-binding buffer (composition not given, ref 38), 37 C, 20 min, PAGE with mixed probes, recombinant protein, protein details: His, label: FITC
T1 sequence (looked up, limits assumed): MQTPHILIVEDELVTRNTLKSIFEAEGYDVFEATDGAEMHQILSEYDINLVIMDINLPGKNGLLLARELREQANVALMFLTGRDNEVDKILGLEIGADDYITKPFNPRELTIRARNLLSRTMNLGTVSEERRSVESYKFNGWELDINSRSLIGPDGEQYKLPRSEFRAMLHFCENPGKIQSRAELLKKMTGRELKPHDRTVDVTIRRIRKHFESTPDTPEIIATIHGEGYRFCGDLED

[2] = biological target: T2, BtsR (Escherichia coli K-12 W3110 type A) (UniProt P0AFT5); settings: 0.5 pmol each FITC probe + 20 pmol TF (Fig 4: 0-8 pmol) in 10 ul DNA-binding buffer (composition not given, ref 38), 37 C, 20 min, PAGE with mixed probes; recombinant protein; protein details: His; label: FITC
T2 sequence (looked up, limits assumed): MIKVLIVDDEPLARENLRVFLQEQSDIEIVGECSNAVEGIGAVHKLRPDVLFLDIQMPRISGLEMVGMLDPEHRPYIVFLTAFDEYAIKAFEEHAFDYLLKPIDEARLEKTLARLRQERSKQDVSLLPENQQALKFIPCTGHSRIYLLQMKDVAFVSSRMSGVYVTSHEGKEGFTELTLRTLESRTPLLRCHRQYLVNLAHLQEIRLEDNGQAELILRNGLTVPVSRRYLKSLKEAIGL

[3] = biological target: T3, DmlR (Escherichia coli K-12 W3110 type A) (UniProt P76250); settings: 0.5 pmol each FITC probe + 20 pmol TF (Fig 4: 0-8 pmol) in 10 ul DNA-binding buffer (composition not given, ref 38), 37 C, 20 min, PAGE with mixed probes; recombinant protein; protein details: His; label: FITC
T3 sequence (looked up, limits assumed): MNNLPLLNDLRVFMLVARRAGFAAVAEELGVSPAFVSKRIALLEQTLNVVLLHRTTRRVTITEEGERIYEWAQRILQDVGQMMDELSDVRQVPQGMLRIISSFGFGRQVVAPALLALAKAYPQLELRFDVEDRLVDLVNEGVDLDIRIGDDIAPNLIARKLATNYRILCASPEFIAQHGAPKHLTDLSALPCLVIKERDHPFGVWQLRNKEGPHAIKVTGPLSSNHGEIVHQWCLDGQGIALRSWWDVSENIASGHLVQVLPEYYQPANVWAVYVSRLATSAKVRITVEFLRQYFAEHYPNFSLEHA

[4] = biological target: T4, GlpR (Escherichia coli K-12 W3110 type A) (UniProt P0ACL0); settings: 0.5 pmol each FITC probe + 20 pmol TF (Fig 4: 0-8 pmol) in 10 ul DNA-binding buffer (composition not given, ref 38), 37 C, 20 min, PAGE with mixed probes; recombinant protein; protein details: His; label: FITC
T4 sequence (looked up, limits assumed): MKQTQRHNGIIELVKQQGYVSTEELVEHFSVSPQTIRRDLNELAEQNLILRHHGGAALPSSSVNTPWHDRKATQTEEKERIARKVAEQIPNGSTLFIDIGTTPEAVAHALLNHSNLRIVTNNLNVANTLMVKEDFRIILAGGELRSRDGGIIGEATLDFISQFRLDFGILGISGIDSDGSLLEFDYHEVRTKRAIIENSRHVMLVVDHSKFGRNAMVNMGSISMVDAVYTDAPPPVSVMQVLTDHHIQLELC

[5] = biological target: McbR (Escherichia coli K-12 W3110 type A) (UniProt P76114); settings: 0.5 pmol each FITC probe + 20 pmol TF (Fig 4: 0-8 pmol) in 10 ul DNA-binding buffer (composition not given, ref 38), 37 C, 20 min, PAGE with mixed probes, recombinant protein, protein details: His, label: FITC
[6] = biological target: NanR (Escherichia coli K-12 W3110 type A) (UniProt P0A8W0); settings: 0.5 pmol each FITC probe + 20 pmol TF (Fig 4: 0-8 pmol) in 10 ul DNA-binding buffer (composition not given, ref 38), 37 C, 20 min, PAGE with mixed probes; recombinant protein; protein details: His; label: FITC
[7] = biological target: T5, OmpR (Escherichia coli K-12 W3110 type A) (UniProt P0AA16); settings: 0.5 pmol each FITC probe + 20 pmol TF (Fig 4: 0-8 pmol) in 10 ul DNA-binding buffer (composition not given, ref 38), 37 C, 20 min, PAGE with mixed probes; recombinant protein; protein details: His; label: FITC
T5 sequence (looked up, limits assumed): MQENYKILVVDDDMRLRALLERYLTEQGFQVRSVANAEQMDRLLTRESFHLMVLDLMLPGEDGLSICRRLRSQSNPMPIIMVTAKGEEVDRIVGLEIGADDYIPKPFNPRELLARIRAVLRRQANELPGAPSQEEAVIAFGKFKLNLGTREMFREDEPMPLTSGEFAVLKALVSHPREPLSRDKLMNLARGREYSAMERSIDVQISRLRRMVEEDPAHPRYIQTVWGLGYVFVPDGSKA

[8] = biological target: T6, SdiA (Escherichia coli K-12 W3110 type A) (UniProt P07026); settings: 0.5 pmol each FITC probe + 20 pmol TF (Fig 4: 0-8 pmol) in 10 ul DNA-binding buffer (composition not given, ref 38), 37 C, 20 min, PAGE with mixed probes, recombinant protein, protein details: His, label: FITC
T6 sequence (looked up, limits assumed): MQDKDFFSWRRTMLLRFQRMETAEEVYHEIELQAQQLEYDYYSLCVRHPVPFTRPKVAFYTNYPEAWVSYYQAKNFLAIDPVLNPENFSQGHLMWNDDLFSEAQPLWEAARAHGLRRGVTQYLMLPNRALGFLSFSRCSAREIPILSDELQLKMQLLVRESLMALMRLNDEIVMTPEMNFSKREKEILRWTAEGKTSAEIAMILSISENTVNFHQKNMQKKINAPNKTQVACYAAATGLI

[9] = biological target: T7, YfeR (Escherichia coli K-12 W3110 type A) (UniProt P0ACR7); settings: 0.5 pmol each FITC probe + 20 pmol TF (Fig 4: 0-8 pmol) in 10 ul DNA-binding buffer (composition not given, ref 38), 37 C, 20 min, PAGE with mixed probes; recombinant protein; protein details: His; label: FITC
T7 sequence (looked up, limits assumed): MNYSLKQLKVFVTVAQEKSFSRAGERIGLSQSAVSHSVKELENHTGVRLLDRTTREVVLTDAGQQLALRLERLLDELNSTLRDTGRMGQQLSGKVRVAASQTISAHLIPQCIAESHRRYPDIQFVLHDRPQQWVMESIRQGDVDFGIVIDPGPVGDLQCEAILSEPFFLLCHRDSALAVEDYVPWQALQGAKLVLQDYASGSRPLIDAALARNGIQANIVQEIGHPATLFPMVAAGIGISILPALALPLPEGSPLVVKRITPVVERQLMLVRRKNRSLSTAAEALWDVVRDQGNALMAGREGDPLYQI

[10] = biological target: YhaJ (Escherichia coli K-12 W3110 type A) (UniProt P67660); settings: 0.5 pmol each FITC probe + 20 pmol TF (Fig 4: 0-8 pmol) in 10 ul DNA-binding buffer (composition not given, ref 38), 37 C, 20 min, PAGE with mixed probes; recombinant protein; protein details: His; label: FITC
[11] = test system: YiuA (Escherichia coli K-12 W3110 type A); settings: 0.5 pmol each FITC probe + 20 pmol TF (Fig 4: 0-8 pmol) in 10 ul DNA-binding buffer (composition not given, ref 38), 37 C, 20 min, PAGE with mixed probes; recombinant protein; protein details: His; label: FITC
[12] = 10 mM acetyl phosphate (AcP), decreased binding
[13] = 10 mM AI-1 (HSL), decreased binding

ATTATAAAGATTTGTAAATATAACCGTCTCCGGTATGTTGCCTGAGGCGGTTTTTTTGTCTCTAACGTGCGGAAAAATTTGTTCCTCTTCACATTTTTTGTACAACCGACATGCCCGTGTAGCTCACAAATATGACAGTGGCGTGAATTTTGCGCATTGACGGCAGTTATGATTCGCGGTATTGCTTAACTGTGATTGCACATTTAGTAATCACTGTTTTCTTTTCCACCAGAAACCAGTATGAGGGAAACGAGGC (double strand) [rmf promoter probe (256 bp)]
binding result [1, 12]: binds more weakly | binding result ([1]; no effector): binds | binding result [2]: binds | binding result [3]: binds | binding result [4]: binds | binding result ([5]; 10 mM AI-2, increased binding): binds | binding result ([5]; no effector): binds | binding result [6]: binds | binding result [7]: binds | binding result [8, 13]: binds more weakly | binding result ([8]; no effector): binds | binding result [9]: binds | binding result [10]: binds | binding result [11]: binds

CGTACCGACCCCATATCGTGACGCCGCTGCTGTTGTACTAACCAAACAGGTTCCCCCTGCCATTCGCCGATTTGTAGTGCGCGCTGACCCACAAGATCGAAATTTGCCGCTTCGCCATATGGCAATTCTCCCTTCGGCAACCATAATTTTTGTTCATGGCTGACGACCCACCAGCCGTGATCTAATTTTTCAATTATACGATCCATAGCTCTTGCACTACCTTTGCATCACTGGCATGTTTAACATGGTTTTTACATTTCTCACTGAGCAGTTTTTGAATACAAACTTGCGGAGTCAATC (double strand) [rsd promoter probe (300 bp)]
binding result [1, 12]: binds more weakly | binding result ([1]; no effector): binds | binding result [2]: no binding | binding result [3]: no binding | binding result [4]: no binding | binding result ([5]; 10 mM AI-2, increased binding): binds | binding result ([5]; no effector): binds | binding result [6]: binds | binding result [7]: no binding | binding result [8, 13]: binds more weakly | binding result ([8]; no effector): binds | binding result [9]: no binding | binding result [10]: no binding | binding result [11]: no binding

For at least one entry, the source does not settle the construct or the ends of the probe. For some of these results: No signal at the amounts used counts as a negative. For some of these results: Tags and fusion partners may be left off the protein sequences shown. For some of these results: Weaker means in comparison with the reference protein, sequence or condition of that experiment.
